Source: paper PMC9583166
No constants are given. Whether binding was seen depends on the method and setting. Binding seen in cells or lysates may run through a third protein. Some entries that bind do so weakly or less than the wild type. Sequences can lack the tags named with a protein.

Chains of the proteins cited; added tags and fusions are not shown. Residues count along the entry.
UniProt Q9BPZ7, residues 266-373: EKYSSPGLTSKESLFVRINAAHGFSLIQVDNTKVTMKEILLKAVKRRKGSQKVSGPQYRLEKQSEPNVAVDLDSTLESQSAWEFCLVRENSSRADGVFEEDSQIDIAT

Experiments:
[1] = target: GST-fused SIN1-RBD (not stated (the printed accession is a human entry)) (UniProt Q9BPZ7); assay: pull-down; purified GST-fused RBDs on glutathione agarose beads, incubated 1 h with cell lysates with overexpressed FLAG-tagged GTPases; wash buffer 50 mM Tris-HCl, 150 mM NaCl, 10 mM MgCl2; immunoblot; only the target purified
GST-fused RAF1-RBD = GST-fused RAF1-RBD (UniProt P04049); assay: as above

binding [1]: binds
binding (GST-fused RAF1-RBD): binds
B1: ERAS with FLAG-Tag (protein, UniProt Q7Z444 1-233)
chain: MELPTKPGTFDLGLATWSPSFQGETHRAQARRRDVGRQLPEYKAVVVGASGVGKSALTIQLNHQCFVEDHDPTIQDSYWKELTLDSGDCILNVLDTAGQAIHRALRDQCLAVCDGVLGVFALDDPSSLIQLQQIWATWGPHPAQPLVLVGNKCDLVTTAGDAHAAAAALAHSWGAHFVETSAKTRQGVEEAFSLLVHEIQRVQEAMAKEPMARSCREKTRHQKATCHCGCSVA
